Results are given in words; binding and its absence hold for the method and conditions named.
Molecular target: FANCL URD-RING fragment (FANCL^UR, residues 109-375) (human) (UniProt Q9NW38)
Assay: SEC

B1: FANCL URD-RING fragment (FANCL^UR, residues 109-375) (domain or fragment, UniProt Q9NW38 109-375)
chain: QFYSSLIEEIGTLGWDKLVYADTCFSTIKLKAEDASGREHLITLKLKAKYPAESPDYFVDFPVPFCASWTPQSSLISIYSQFLAAIESLKAFWDVMDEIDEKTWVLEPEKPPRSATARRIALGNNVSINIEVDPRHPTMLPECFFLGADHVVKPLGIKLSRNIHLWDPENSVLQNLKDVLEIDFPARAILEKSDFTMDCGICYAYQLDGTIPDQVCDNSQCGQPFHQICLYEWLRGLLTSRQSFNIIFGECPYCSKPITLKMSGRKH
For B1, the binding was “no binding”.
